No constants are given. Whether binding was seen depends on the method and setting. In cells and extracts the contact can be indirect. Some binding calls cover weakened binding; strength is not graded here. Sequences can lack the tags named with a protein.

Chains of the proteins cited; added tags and fusions are not shown. Lines headed by an entry give the natural chain unless they say otherwise; changes in a name come on top.
UniProt P51809: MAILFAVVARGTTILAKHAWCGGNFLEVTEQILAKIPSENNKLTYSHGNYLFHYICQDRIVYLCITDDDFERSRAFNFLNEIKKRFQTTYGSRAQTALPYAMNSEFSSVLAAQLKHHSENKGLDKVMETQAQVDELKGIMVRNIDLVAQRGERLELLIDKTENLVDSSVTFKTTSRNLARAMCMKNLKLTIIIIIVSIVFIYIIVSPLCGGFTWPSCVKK

For the experiment, the target named is T1, HA-tagged full human C3G (human) (UniProt Q13905).
T1 sequence: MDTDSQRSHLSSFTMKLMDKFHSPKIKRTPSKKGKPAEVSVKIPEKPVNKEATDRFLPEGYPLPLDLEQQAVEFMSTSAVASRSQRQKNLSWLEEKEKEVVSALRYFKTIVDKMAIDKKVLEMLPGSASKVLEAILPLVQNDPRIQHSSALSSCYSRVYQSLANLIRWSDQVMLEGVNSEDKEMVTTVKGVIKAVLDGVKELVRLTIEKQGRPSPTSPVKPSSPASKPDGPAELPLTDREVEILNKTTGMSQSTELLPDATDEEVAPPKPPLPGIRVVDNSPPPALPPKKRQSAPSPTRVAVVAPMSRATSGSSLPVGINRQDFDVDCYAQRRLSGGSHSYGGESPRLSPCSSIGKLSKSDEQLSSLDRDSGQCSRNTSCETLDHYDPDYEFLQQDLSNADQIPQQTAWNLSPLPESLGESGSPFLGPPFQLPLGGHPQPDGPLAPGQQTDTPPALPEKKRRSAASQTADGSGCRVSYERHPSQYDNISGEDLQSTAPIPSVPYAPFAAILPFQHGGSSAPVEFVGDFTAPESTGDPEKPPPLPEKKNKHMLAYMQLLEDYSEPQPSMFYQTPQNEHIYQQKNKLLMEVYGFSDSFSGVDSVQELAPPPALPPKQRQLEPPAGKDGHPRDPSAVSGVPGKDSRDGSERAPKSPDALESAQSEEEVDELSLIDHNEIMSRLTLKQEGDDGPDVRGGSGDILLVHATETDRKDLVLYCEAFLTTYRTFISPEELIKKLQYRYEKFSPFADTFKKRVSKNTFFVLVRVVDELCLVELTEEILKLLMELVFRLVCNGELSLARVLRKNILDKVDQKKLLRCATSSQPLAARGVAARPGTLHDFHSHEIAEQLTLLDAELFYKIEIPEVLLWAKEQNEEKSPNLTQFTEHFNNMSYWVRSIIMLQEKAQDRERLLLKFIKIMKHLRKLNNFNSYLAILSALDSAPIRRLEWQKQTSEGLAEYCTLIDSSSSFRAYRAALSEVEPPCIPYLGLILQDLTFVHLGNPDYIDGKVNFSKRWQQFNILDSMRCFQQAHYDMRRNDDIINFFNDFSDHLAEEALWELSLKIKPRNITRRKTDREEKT
The experiment in a line: co-IP; HEK293T cells co-transfected with HA-C3G and CFP-VAMP-7 fusion proteins; immunoprecipitated with anti-HA.11; VAMP-7 detected with anti-TI-VAMP.
On to “CFP-VAMP7-cyto, VAMP-7 cytosolic domain (aminoacids 1-188) (from UniProt P51809 1-188) (domain or fragment)”, for which the binding entry is given as “binds”. As for “CFP-VAMP7-NT, N-terminal (longin) domain of VAMP-7 (aminoacids 1-120) (from UniProt P51809 1-120) (domain or fragment)”, the binding result is on record as “binds”.

For the substance “CFP-VAMP7-CT, C-terminal (SNARE) domain of VAMP-7 (aminoacids 121-188) (from UniProt P51809 121-188) (domain or fragment)”, the binding entry is listed as “binds”.

Values taken from article PMC5762300.
